Laboratory results from ChEMBL document CHEMBL3046626, “Antifungal chalcones and new caffeic acid esters from Zuccagnia punctata acting against soybean infecting fungi” (2004).
≈ marks a conversion by molar mass, not a printed value.

Tests used:
Assay type in all cases: functional
Macrophomina phaseolina = test: Antifungal activity against Macrophomina phaseolina isolate CE173 after 48 to 72 hr
Colletotrichum truncatum = test: Antifungal activity against Colletotrichum truncatum CE175 after 48 to 72 hr
Fusarium equiseti = test: Antifungal activity against Fusarium equiseti (CE181) after 48 to 72 hr
Diaporthe longicolla = test: Antifungal activity against Diaporthe longicolla CE117 after 48 to 72 hr
Fusarium graminearum [1] = test: microbe, parasite or virus in culture; conditions: isolate CE169
Fusarium graminearum [2] = test: microbe, parasite or virus in culture; conditions: isolate CE171
Alternaria alternata = test: Antifungal activity against Alternaria alternata (CE172) after 48 to 72 hr
Fusarium graminearum [3] = test: microbe, parasite or virus in culture; conditions: isolate CE170
Fusarium graminearum [4] = test: microbe, parasite or virus in culture; conditions: isolate CE135

Compound: O=C1CC(c2ccccc2)Oc2cc(O)ccc21 (centres undefined) [7-HYDROXYFLAVANONE]
- MIC (Macrophomina phaseolina): > 50 µg/mL
- MIC (Colletotrichum truncatum): > 50 µg/mL
- MIC (Fusarium equiseti): > 50 µg/mL
- MIC (Diaporthe longicolla): 6.25 µg/mL (≈ 26 µM)
- MIC (Fusarium graminearum [1]): > 50 µg/mL
- MIC (Fusarium graminearum [2]): > 50 µg/mL
- MIC (Alternaria alternata): > 50 µg/mL
- MIC (Fusarium graminearum [3]): > 50 µg/mL
- MIC (Fusarium graminearum [4]): > 50 µg/mL
